From US4908322A, “Derivatization of amines for electrochemical detection” (The United States of America as represented by the …, priority 1988, dated 1990)

Experiment: Histamine and N.tau.-methylhistamine contents in rat hypothalamus
Settings: 1.5±0.3 mg tissue, five repetitions

## NCCc1c[nH]cn1 [histamine]
  Mean content of the median eminence (± SD): 3.7±1.0 pmol/g tissue

## Cn1cnc(CCN)c1 [N.tau.-methylhistamine]
  Mean content of the median eminence (± SD): 1.5±0.4 pmol/g tissue
